Library screen at single concentrations

From ChEMBL document CHEMBL3988442, “University of Dundee, Small-Polar-MMV Screening Library” (2021).

The filed quantity is “Percent Effect” (%). The controls that fix the scale are not given in the record; negative values are as filed. Compounds were drawn at random from those tested, without regard to their results. Two or more numbers in one place are separate tests of the same structure; such repeats can differ widely.

A: 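Growth of Mycobacterium tuberculosis over 3 days (7H9 medium with glucose and tyloxapol); the read-out is not stated. Tested at 50 µM. The record gives no direction; compounds that gave an IC50 in retests scored well above the rest, so higher reads as more growth inhibition. Of about 69,000 compounds tested this way, about 760 (1.1%) reached 50% or more in at least one test.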
B: 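Whole-cell growth test on Mycobacterium tuberculosis, read after 4 days in a medium based on cholesterol and the lipid DPPC; the read-out is not stated. Compounds at 50 µM. Higher reads as more growth inhibition (inferred: compounds with an IC50 in retests scored well above the rest). Size under these conditions: about 69,000 compounds, about 370 of them at 50% or above in at least one test.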

With CC(C)N1CCC(CC(=O)NCc2cc(O)ncn2)CC1 the screen gave A: 3.153% and -6.438%; B: 7.93%.
With Cc1nc(CC(C)C)sc1C(=O)N1CCC1 the screen gave A: 14.49%; B: 0.9451%.
With COc1ccc2[nH]nc(CN3CCC(C(=O)N4CCCCC4)CC3)c2c1 the screen gave A: -23.3%; B: -15.86%.
With Cc1ccc(CN(Cc2ccccn2)C(=O)C2CCCCCN2C)s1 (stereo unspecified) the screen gave A: -39.04%; B: -43.32%.
With N#Cc1ccsc1C(=O)N1CCCN(Cc2cscn2)CC1 the screen gave A: 2.348%; B: -9.284%.
With N#Cc1ccc(N2CCCC3(CCN(c4cccnc4)CC3)C2)cc1.O=C(O)C(F)(F)F the screen gave A: 15.33%; B: 13.47%.
With CCc1n[nH]c(C2CN(Cc3nccn3CC)CCO2)n1 (stereo unspecified) the screen gave A: -28.74%; B: -2.747%.
With Cn1nc(-c2ccc(Cl)cc2)c(Br)c1C(=O)O the screen gave A: 8.31%; B: -4.449%.
With Cc1nn(C)cc1C1CC(=O)Nc2c1cnn2C(C)C (stereo unspecified) the screen gave A: 21.53%; B: 9.783%.
With CCn1nc(CC(C)C)cc1C(=O)N1CC(N2CCCCC2C)C1 (stereo unspecified) the screen gave A: 5.515%; B: -13.09%.
With Cn1cc(CNCCc2nccs2)c(-c2cccnc2)n1 the screen gave A: -10.31%; B: -17.42%.
With CCOCC(=O)NCC1(NC(C)c2ccccc2)CCOCC1 (stereo unspecified) the screen gave A: 3.79% and -4.99%; B: -9.552%.
With [H][C@@]12CCN(C(C)=O)C[C@]1([H])[C@H](C(=O)Nc1cccnc1C)CCO2 the screen gave A: 1.402%; B: 1.361%.
With CN(C1CCc2ccccc2C1)S(C)(=O)=O (stereo unspecified) the screen gave A: -17.58%; B: -23.41%.
With Cn1cc(CNC(=O)C2COCC(=O)N2Cc2ccccc2)cn1 (stereo unspecified) the screen gave A: -28.92%; B: -19.75%.
With Cc1cc(-c2cccc(-c3ccn(CCCO)n3)c2)nc(N(C)C)n1 the screen gave A: 43.14%; B: 23.17%.
With O=C(O)C(F)(F)F.O=C(O)C(F)(F)F.[H][C@@]12COC[C@]1([H])[C@@H](OCc1csc(C)n1)CN2c1ncc(CC)cn1 the screen gave A: 10.77% and 22.32%; B: 9.236%.
With O=C(c1cccnc1)N1CC(S(=O)(=O)c2ccc(Cl)cc2)C1 the screen gave A: 1.41%; B: 0.602%.
With CC(C)(CNc1c(C#N)cnc2ccc(Cl)cc12)C(N)=O the screen gave A: -31.9%; B: 36.77%.
With Cc1cn(Cc2ccccc2)nc1N the screen gave A: 28.17%; B: 12.41%.
With CN(C)S(=O)(=O)N1CCC(Oc2cccnn2)CC1 the screen gave A: -0.1369%; B: -8.594%.
With NC(=O)CCn1cc(CNCCCc2ccccc2O)c2ccccc21 the screen gave A: -4.21%; B: -8.727% and -0.08164%.
With O=C(O)C(F)(F)F.[H][C@]12CCN(S(=O)(=O)CC)CC[C@@]1([H])S(=O)(=O)CCN2CC(C)C the screen gave A: 2.144% and -3.539%; B: 8.133%.
With Cc1nc(-c2ccc(Cl)s2)sc1C(=O)N(C)CC(N)=O the screen gave A: -9.29% and -0.07484%; B: -20.16%.
With O=C(Cn1cccc2cc(-c3ccc(F)cc3)nc1-2)N1CCC(O)CC1 the screen gave A: 3.753%; B: 2.183%.
With Cc1ccc(C(=O)NC2CCN(C(C)C)C2)c(=O)[nH]1 (stereo unspecified) the screen gave A: -2.623%; B: 15.79%.
With Cc1cnn(CC2CCCN2Cc2nccn2C)c1 (stereo unspecified) the screen gave A: 25.28%; B: 1.514%.
With CCOc1ccccc1-c1noc(CN2CC(n3cccn3)C2)n1 the screen gave A: 2.452%; B: -19.35%.
With Cn1cccc1C(=O)NCc1cn2c(n1)CN(Cc1cccnc1)CC2.O=C(O)C(F)(F)F.O=C(O)C(F)(F)F the screen gave A: -28.92%; B: -10.51% and -5.824%.
With Cc1cc(C2CCC2)nc(NCCC23CCCN2CCC3)n1 the screen gave A: 5.145%; B: 8.892%.
With Cc1cc(C(=O)N2CCCCC2C)ccc1NCCCO (stereo unspecified) the screen gave A: 19%; B: -1.815%.
With CC(C)c1nc2n(n1)CC(NCc1nc(-c3ccccn3)no1)CC2 (stereo unspecified) the screen gave A: 6.994%; B: 7.026%.
With Cc1cnn(CC2CCCCN2Cc2cc(C)no2)c1 (stereo unspecified) the screen gave A: 13.28%; B: 15.6%.
With Cc1nc2c(c(=O)n1C)CCN(Cc1cc3ccccc3[nH]1)CC2 the screen gave A: 11.88%; B: 7.874%.
With Cc1ccc(NC(=O)N(C)C)c(C(=O)OCC(=O)NC(C)C(C)C)c1 (stereo unspecified) the screen gave A: 1.338% and -0.9652%; B: -19.58%.
With CNC[C@H]1CC[C@H](c2cc(CN(C)S(=O)(=O)N(C)C)n(C)n2)CC1.Cl the screen gave A: 15.97%; B: -1.946%.
With CN(CC1CCCCC1)C(=O)c1ccc(-n2ncc(C#N)c2N)cc1 the screen gave A: 4.104%; B: -13.97%.
With COCC(NC(=O)c1cnc(-c2ccncc2)nc1)c1ccnn1C (stereo unspecified) the screen gave A: -13.68%; B: -7.445%.
With CNc1cncc(C2CCCN2S(=O)(=O)c2cccc(F)c2)n1 (stereo unspecified) the screen gave A: -1.694%; B: 2.01%.
With O=C(O)C(F)(F)F.O=C(O)C(F)(F)F.O=C(O)C(F)(F)F.[H][C@@]12CO[C@@H](CN(C)Cc3cccnc3)[C@]1([H])CCN(Cc1ccoc1)C2 the screen gave A: -23.57% and -1.785%; B: 2.651% and 0.5084%.
With Cc1nc2cc(-c3nccn3C)nn2c(N2CCC(O)CC2)c1C.Cl the screen gave A: 11.94%; B: 6.688% and 2.412%.
With Cn1cc(-c2cnc(N3CCCC3)nc2)cc1C(=O)N1CCOCC1 the screen gave A: 13.54%; B: -5.47%.
With CC(NC(=O)c1cccs1)C(=O)NS(=O)(=O)c1cccc(C#N)c1 (stereo unspecified) the screen gave A: 14.57%; B: -0.8356%.
With COC(CNC(=O)c1cn(C)nn1)c1ccc(C)s1 (stereo unspecified) the screen gave A: -7.973%; B: 8.7%.
With CCS(=O)(=O)CCN1CCN(C2CCC(C(C)C)CC2)CC1 (stereo unspecified) the screen gave A: 3.02%; B: -5.863%.
With CC(Oc1ccccc1)C(=O)N1CCCN(Cc2nccn2C)CC1 (stereo unspecified) the screen gave A: -12.34%; B: 0.8526%.